Assay results published in paper PMC7862700.
The list shows a part of the results, in another mix than the full data. For part of these data: At the low end of the ranking, values are background and their order means little. The list shows a part of the results. For part of these data: The exact form of the protein is not confirmed.

Biological target: T1, ETS1 (UniProt P14921)
T1 sequence: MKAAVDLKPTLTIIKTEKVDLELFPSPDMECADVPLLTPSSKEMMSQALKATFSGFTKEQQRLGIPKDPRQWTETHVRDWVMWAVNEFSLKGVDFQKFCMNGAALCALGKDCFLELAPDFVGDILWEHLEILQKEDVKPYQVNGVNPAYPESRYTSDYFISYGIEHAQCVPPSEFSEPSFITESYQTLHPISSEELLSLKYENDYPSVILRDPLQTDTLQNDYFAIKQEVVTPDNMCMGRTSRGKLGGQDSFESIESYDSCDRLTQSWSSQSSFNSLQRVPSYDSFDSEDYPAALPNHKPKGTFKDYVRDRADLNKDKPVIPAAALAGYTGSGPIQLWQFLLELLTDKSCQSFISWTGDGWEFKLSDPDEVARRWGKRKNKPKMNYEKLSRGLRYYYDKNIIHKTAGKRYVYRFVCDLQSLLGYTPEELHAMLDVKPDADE
Assay: DAPPL (digital affinity profiling via proximity ligation, sequencing)
Settings: 10 mM Tris-HCl pH 7.5, 50 mM NaCl, 1 mM DTT, 4% glycerol, room temperature, 30 min; GST-TFs on glutathione beads, 16-mer random dsDNA library, 0.1% …; high values mean tight binding; double strand, one strand shown; scale: fold enrichment (6-mer frequency, TF over GST control)

Question: ACTTCC was tested. Which binding signal did it give?
Answer: 7.9

Question: CTTGGT was tested. Which binding signal did it give?
Answer: 1.56

Question: GTATTT was tested. Which binding signal did it give?
Answer: 1.51

Question: For CGATTG, which binding signal is on record?
Answer: 1.25

Question: With AAATTT as the sequence, how does the binding signal read?
Answer: 1.35

Question: For GCCTTC, which binding signal is on record?
Answer: 1.58

Question: For TACGTT, which binding signal is on record?
Answer: 1.23

Question: With TATAAG as the sequence, how does the binding signal read?
Answer: 1.12

Question: With TGTTAT as the sequence, how does the binding signal read?
Answer: 1.45

Question: With CTTTCC as the sequence, how does the binding signal read?
Answer: 1.75

Question: Which binding signal does the source give for TTAAAC here?
Answer: 1.32

Question: TCGCCT was tested. Which binding signal did it give?
Answer: 1.2

Question: How did the binding signal turn out when TTAGTA was run?
Answer: 1.22

Question: TCTTCT was tested. Which binding signal did it give?
Answer: 1.24

Question: For CATGCT, which binding signal is on record?
Answer: 1.26

Question: ATCGCC was tested. Which binding signal did it give?
Answer: 1.14

Question: Which binding signal does the source give for GCTCAG here?
Answer: 1.2

Question: How did the binding signal turn out when TCTAAG was run?
Answer: 1.33

Question: Which binding signal does the source give for GAACTC here?
Answer: 1.38

Question: For GAACAC, which binding signal is on record?
Answer: 1.13

Question: For CGATCG, which binding signal is on record?
Answer: 1.1

Question: How did the binding signal turn out when CTTTAA was run?
Answer: 1.28

Question: Which binding signal does the source give for GTTTCG here?
Answer: 1.26

Question: How did the binding signal turn out when CTCTGA was run?
Answer: 1.12

Question: With TTGATT as the sequence, how does the binding signal read?
Answer: 1.21

Question: For TGCACT, which binding signal is on record?
Answer: 1.24

Question: AATAAC was tested. Which binding signal did it give?
Answer: 1.3

Question: Which binding signal does the source give for CAGAAT here?
Answer: 1.08

Question: Which binding signal does the source give for CCAATC here?
Answer: 1.23

Question: Which binding signal does the source give for CATCCC here?
Answer: 1.16

Question: How did the binding signal turn out when CCATAT was run?
Answer: 1.22

Question: For AGAAGC, which binding signal is on record?
Answer: 1.18

Question: Which binding signal does the source give for ATGACG here?
Answer: 1.44

Question: Which binding signal does the source give for TCGCTA here?
Answer: 1.16

Question: CTAAGC was tested. Which binding signal did it give?
Answer: 1.12

Question: With ACCTCG as the sequence, how does the binding signal read?
Answer: 1.17

Question: Which binding signal does the source give for TTGCGC here?
Answer: 1.14

Question: AGACCT was tested. Which binding signal did it give?
Answer: 1.08

Question: Which binding signal does the source give for CGCTAC here?
Answer: 1.15

Biological target: T2, SPDEF (UniProt O95238)
T2 sequence: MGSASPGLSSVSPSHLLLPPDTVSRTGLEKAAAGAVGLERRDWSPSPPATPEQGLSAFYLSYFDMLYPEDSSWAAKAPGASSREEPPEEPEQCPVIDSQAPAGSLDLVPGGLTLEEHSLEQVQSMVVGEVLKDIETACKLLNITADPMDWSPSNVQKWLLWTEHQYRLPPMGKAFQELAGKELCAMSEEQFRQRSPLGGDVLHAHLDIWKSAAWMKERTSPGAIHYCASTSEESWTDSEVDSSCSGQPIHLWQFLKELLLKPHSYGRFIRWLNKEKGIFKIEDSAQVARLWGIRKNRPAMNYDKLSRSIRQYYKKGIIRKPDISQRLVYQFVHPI
Assay: as above
Settings: 10 mM Tris-HCl pH 7.5, 50 mM NaCl, 1 mM DTT, 4% glycerol, room temperature, 30 min; GST-TFs on glutathione beads, 16-mer random dsDNA library, 0.1% …; high values mean tight binding; double strand, one strand shown; scale: fold enrichment (6-mer frequency, TF over GST control)

Question: With ACTTCC as the sequence, how does the binding signal read?
Answer: 8.64

Question: For CTTGGT, which binding signal is on record?
Answer: 1.51

Question: With GTATTT as the sequence, how does the binding signal read?
Answer: 1.64

Question: CGATTG was tested. Which binding signal did it give?
Answer: 1.22

Question: Which binding signal does the source give for AAATTT here?
Answer: 1.15

Question: Which binding signal does the source give for GCCTTC here?
Answer: 1.47

Question: With TACGTT as the sequence, how does the binding signal read?
Answer: 1.22

Question: Which binding signal does the source give for TATAAG here?
Answer: 1.2

Question: TGTTAT was tested. Which binding signal did it give?
Answer: 1.41

Question: Which binding signal does the source give for CTTTCC here?
Answer: 1.96

Question: With TTAAAC as the sequence, how does the binding signal read?
Answer: 1.18

Question: For TCGCCT, which binding signal is on record?
Answer: 1.13

Question: With TTAGTA as the sequence, how does the binding signal read?
Answer: 1.12

Question: How did the binding signal turn out when TCTTCT was run?
Answer: 1.16

Question: With CATGCT as the sequence, how does the binding signal read?
Answer: 1.2

Question: Which binding signal does the source give for ATCGCC here?
Answer: 1.12

Question: GCTCAG was tested. Which binding signal did it give?
Answer: 1.09

Question: With TCTAAG as the sequence, how does the binding signal read?
Answer: 1.1

Question: Which binding signal does the source give for GAACTC here?
Answer: 1.33

Question: For GAACAC, which binding signal is on record?
Answer: 1.26

Question: CGATCG was tested. Which binding signal did it give?
Answer: 1.1

Question: CTTTAA was tested. Which binding signal did it give?
Answer: 1.28

Question: GTTTCG was tested. Which binding signal did it give?
Answer: 1.27

Question: With CTCTGA as the sequence, how does the binding signal read?
Answer: 1.11

Question: For TTGATT, which binding signal is on record?
Answer: 1.15

Question: How did the binding signal turn out when TGCACT was run?
Answer: 1.4

Question: AATAAC was tested. Which binding signal did it give?
Answer: 1.21

Question: CAGAAT was tested. Which binding signal did it give?
Answer: 1.06

Question: For CCAATC, which binding signal is on record?
Answer: 1.16

Question: Which binding signal does the source give for CATCCC here?
Answer: 1.47

Question: Which binding signal does the source give for CCATAT here?
Answer: 1.33

Question: AGAAGC was tested. Which binding signal did it give?
Answer: 1.15

Question: ATGACG was tested. Which binding signal did it give?
Answer: 1.45

Question: With TCGCTA as the sequence, how does the binding signal read?
Answer: 1.03

Question: For CTAAGC, which binding signal is on record?
Answer: 1.06

Question: With ACCTCG as the sequence, how does the binding signal read?
Answer: 1.06

Question: With TTGCGC as the sequence, how does the binding signal read?
Answer: 1.06

Question: For AGACCT, which binding signal is on record?
Answer: 0.91

Question: With CGCTAC as the sequence, how does the binding signal read?
Answer: 1.21
